Experimental data: PMC9430589

By UniProt entry, the sequences of proteins in these tests, tags left out.
UniProt Q9RVW0: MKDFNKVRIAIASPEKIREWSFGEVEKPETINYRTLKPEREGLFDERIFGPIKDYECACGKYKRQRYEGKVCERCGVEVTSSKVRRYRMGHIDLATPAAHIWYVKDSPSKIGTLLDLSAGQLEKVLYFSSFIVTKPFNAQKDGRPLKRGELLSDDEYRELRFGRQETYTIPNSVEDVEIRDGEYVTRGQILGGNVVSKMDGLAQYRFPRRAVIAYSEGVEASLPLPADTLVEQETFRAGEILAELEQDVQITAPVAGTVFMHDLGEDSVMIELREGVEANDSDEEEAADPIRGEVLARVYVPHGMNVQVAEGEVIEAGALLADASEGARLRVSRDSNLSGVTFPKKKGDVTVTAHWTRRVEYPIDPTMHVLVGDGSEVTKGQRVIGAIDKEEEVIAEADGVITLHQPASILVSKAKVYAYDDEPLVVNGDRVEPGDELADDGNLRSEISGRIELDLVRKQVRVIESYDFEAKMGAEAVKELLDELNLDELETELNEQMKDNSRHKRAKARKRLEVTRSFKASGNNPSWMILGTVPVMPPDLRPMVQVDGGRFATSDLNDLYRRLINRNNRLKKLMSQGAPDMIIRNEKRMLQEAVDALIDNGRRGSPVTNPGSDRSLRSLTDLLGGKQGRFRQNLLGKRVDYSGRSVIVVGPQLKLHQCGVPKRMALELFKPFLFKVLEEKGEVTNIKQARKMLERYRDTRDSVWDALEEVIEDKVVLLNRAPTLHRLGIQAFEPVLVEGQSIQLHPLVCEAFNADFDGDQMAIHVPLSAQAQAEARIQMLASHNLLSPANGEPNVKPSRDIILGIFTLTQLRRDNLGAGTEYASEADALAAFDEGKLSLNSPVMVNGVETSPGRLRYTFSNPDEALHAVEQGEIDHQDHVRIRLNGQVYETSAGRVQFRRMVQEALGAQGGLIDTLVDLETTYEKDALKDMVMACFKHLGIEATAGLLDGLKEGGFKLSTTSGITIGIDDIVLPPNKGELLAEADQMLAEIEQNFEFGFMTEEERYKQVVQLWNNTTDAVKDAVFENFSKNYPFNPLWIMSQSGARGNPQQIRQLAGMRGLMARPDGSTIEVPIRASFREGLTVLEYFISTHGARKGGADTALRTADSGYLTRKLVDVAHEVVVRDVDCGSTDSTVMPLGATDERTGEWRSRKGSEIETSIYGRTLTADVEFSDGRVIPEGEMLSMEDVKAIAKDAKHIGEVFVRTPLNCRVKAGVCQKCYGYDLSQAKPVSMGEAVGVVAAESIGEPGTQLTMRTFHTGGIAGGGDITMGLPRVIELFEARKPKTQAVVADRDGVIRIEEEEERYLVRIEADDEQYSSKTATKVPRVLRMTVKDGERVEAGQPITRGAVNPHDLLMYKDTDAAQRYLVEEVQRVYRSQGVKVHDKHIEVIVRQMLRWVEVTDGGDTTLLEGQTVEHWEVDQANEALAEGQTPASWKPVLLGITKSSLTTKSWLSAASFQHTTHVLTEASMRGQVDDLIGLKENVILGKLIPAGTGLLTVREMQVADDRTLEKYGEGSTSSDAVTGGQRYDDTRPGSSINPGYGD
UniProt Q9RVV9: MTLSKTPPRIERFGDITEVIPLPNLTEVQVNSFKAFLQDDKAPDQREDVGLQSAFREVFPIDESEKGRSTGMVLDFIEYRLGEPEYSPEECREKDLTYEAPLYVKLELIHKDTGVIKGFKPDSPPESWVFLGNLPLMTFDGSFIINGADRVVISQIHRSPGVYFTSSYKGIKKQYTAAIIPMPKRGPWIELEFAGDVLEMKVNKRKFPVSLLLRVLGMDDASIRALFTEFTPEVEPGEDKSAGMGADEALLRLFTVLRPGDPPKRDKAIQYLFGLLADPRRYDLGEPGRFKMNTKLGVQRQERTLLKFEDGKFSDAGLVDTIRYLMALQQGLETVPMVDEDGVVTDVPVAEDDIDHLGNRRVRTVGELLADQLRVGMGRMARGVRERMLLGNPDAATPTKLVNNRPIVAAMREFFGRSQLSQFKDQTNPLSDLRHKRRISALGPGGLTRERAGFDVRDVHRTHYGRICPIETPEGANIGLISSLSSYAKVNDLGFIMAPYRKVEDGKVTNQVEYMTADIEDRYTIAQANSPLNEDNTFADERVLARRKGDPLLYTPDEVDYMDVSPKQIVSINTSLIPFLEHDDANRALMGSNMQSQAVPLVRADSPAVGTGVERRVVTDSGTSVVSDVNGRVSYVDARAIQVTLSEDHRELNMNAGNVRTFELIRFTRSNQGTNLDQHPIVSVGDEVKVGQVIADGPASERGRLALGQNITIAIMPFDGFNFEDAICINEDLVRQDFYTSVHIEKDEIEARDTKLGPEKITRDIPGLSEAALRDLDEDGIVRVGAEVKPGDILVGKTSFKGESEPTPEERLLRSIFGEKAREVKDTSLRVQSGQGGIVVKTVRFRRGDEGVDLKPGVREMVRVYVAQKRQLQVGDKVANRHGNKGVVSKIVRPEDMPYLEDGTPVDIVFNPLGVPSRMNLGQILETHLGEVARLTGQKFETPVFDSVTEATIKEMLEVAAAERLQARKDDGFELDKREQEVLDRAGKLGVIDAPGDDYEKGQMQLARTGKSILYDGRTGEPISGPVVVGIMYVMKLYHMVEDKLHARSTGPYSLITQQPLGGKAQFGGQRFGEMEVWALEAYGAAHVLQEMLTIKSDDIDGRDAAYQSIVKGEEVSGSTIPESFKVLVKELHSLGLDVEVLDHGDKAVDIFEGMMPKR

T1: C-terminus His6-tagged PNPase (polynucleotide phosphorylase, DR_2063) of D. radiodurans (D. radiodurans) (UniProt Q9RSR1)
T1 sequence: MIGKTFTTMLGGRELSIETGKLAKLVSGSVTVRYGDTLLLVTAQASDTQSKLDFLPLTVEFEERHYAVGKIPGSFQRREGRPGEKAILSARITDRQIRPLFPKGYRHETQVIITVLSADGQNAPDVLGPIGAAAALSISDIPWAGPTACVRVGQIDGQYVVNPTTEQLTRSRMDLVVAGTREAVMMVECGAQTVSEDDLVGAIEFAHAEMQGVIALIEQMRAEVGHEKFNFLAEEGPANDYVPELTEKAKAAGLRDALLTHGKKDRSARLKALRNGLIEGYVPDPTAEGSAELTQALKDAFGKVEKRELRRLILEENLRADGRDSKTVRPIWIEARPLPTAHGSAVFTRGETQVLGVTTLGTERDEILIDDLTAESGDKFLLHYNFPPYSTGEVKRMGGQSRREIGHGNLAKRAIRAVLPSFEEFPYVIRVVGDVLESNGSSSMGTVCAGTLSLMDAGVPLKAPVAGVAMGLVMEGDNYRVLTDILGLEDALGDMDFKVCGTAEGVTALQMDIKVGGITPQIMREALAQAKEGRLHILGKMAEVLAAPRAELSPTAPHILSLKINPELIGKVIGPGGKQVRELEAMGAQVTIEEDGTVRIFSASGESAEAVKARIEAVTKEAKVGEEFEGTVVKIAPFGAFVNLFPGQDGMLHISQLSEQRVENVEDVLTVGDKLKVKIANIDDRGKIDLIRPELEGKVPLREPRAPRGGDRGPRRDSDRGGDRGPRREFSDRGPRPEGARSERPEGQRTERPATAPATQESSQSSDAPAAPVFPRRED

B1: RecA, endogenous (protein, UniProt P42443 1-363)
chain: MSKDATKEISAPTDAKERSKAIETAMSQIEKAFGKGSIMKLGAESKLDVQVVSTGSLSLDLALGVGGIPRGRITEIYGPESGGKTTLALAIVAQAQKAGGTCAFIDAEHALDPVYARALGVNTDELLVSQPDNGEQALEIMELLVRSGAIDVVVVDSVAALTPRAEIEGDMGDSLPGLQARLMSQALRKLTAILSKTGTAAIFINQVREKIGVMYGNPETTTGGRALKFYASVRLDVRKIGQPTKVGNDAVANTVKIKTVKNKVAAPFKEVELALVYGKGFDQLSDLVGLAADMDIIKKAGSFYSYGDERIGQGKEKTIAYIAERPEMEQEIRDRVMAAIRAGNAGEAPALAPAPAAPEAAEA
B2: RNase J (DR_2417/Rnj), endogenous (enzyme, UniProt H9CZL7 1-559)
chain: MTRPEQPRPESADLPAPTLEVIPLGGMGEIGKNITVFRYGDEIVVVDGGLAFPKAHQMGIDLIVPRIDYLLEHQDKIKGWILTHGHEDHIGGLPYIFARLPRVPVYGLPLTLALVREKLSEFGLQDVDLREVTYGDEVRFGQSFVAEFFCMTHSIPDNAGYILKTPVGDVLHTGDFKIDPDVGTGAGIVSDLERVEQAGKDGVLLLISDSTNAERPGHTPSEAEIARNLEEIIKGCRGRVFLTTFASQVYRIQNILDLAHRQGRRVVMEGRSMIKYAQAAQATGHMNPPEPFLTSEEVGELQDQQVLFVCTGSQGQPMAVLGRLAFGTHAKIALRRGDTVILSSNPIPGNEDAVNLIVNRLYEIGVDVVYPPTYRVHASGHASQEELATILNLTRPKFFLPWHGEPRHQINHAKLAQTLPRPPKRTLIAKNGDIVNLGPDEFRVSGTVAAGAVYVDGLGVGDVNDDVLLDRVNLSQEGLLILTAVLHPTPHVEVVARGFARPNRDLELQIRRVALEAVEQGLREKKRLEDVRDDMYGAVRRFTRKATGRNPVLIPMIVD
B3: PNPase (polynucleotide phosphorylase, DR_2063), endogenous (enzyme, UniProt Q9RSR1 1-779)
chain: T1 sequence
B4: DNA-directed RNA polymerase subunit RpoA, endogenous (protein, UniProt Q9RSJ6 1-341)
chain: MEQKRPQLKARVDGDYGEFVLEPLARGYGVTIGNPIRRILMSSIPGTAVTSVYIEDVLHEFSTIPGVREDVIRLILNLKELVVKFHAPGPKTLTLRAQGEGEVRASAFEVPTDAEIVNPDLVIANLAEDGKLVMEVRVEEGEGYVSADKHATKDRINSIPVDAMFSPVRRVAYHVENTRVGQQTDLDRLILRVWTDGSAGPQEALDKAVEILRDELSVFGNVEPMPALESSYAAATPAAVYDPATATLPASVYDSPRQPDLGSLSINPQPFPTDQDTPRVTLEGLGLTTRVLHSLKEEGIDSVDALCALSDRDLKKVPGIGERSLDEIKQQLAQFGLALRD
B5: Ssb, endogenous (protein, UniProt Q9RY51 1-301)
chain: MARGMNHVYLIGALARDPELRYTGNGMAVFEATVAGEDRVIGNDGRERNLPWYHRVSILGKPAEWQAERNLKGGDAVVVEGTLEYRQWEAPEGGKRSAVNVKALRMEQLGTQPELIQDAGGGVRMSGAMNEVLVLGNVTRDPEIRYTPAGDAVLSLSIAVNENYQDRQGQRQEKVHYIDATLWRDLAENMKELRKGDPVMIMGRLVNEGWTDKDGNKRNSTRVEATRVEALARGAGNANSGYAAATPAAPRTQTASSAARPTSGGYQSQPSRAANTGSRSGGLDIDQGLDDFPPEEDDLPF

Columns and labels:
Assay in all cases: affinity purification with mass spectrometry; C-terminal His6-tagged bait (PNPase or RhlB) expressed from pRADgro in D. radiodurans R1; cells cross-linked with 1% formaldehyde, sonicated; 500 μg lysate on Ni-NTA magnetic beads, 30 min at room temperature; washed with 20 mM imidazole, 300 mM NaCl, pH 7.4; eluted with 500 mM imidazole; LC-MS/MS; enrichment against a strain expressing only the His6 tag
[1] = molecular target: T1, C-terminus His6-tagged PNPase (polynucleotide phosphorylase, DR_2063) of D. radiodurans (D. radiodurans)
[2] = molecular target: T1, C-terminus His6-tagged PNPase (polynucleotide phosphorylase, DR_2063) of D. radiodurans (D. radiodurans); remark: listed apart in the source
[3] = molecular target: C-terminus His6-tagged RhlB (DEAD box RNA helicase, DR_0335) of D. radiodurans (D. radiodurans)

Molecule | binding [2] | further results
DNA-directed RNA polymerase subunit RpoC, endogenous (from UniProt Q9RVW0 1-1546) |  | binding [1]: binds
DNA-directed RNA polymerase subunit RpoB, endogenous (from UniProt Q9RVV9 1-1159) |  | binding [1]: binds
B1 | binds | 
B2 | binds | 
B3 |  | binding [3]: binds
B4 | binds | 
B5 | binds | 

Like-named read-outs stand apart in the source and are kept apart here. Results are given in words; binding and its absence hold for the method and conditions named. In cells and extracts the contact can be indirect. A yes stands for co-enrichment or nearness to the bait. Other partners may have been found. For some of these results: Tags and fused reporters may be left off the sequences shown.
